Experimental data published in patent US11787839B2, “Targeting α2δ-1-bound glutamate receptors for treating diseases and disorders” (Board of Regents, The University of Texas System, priority 2017, dated 2023).

System: α2δ-1-NMDAR interaction
Assay: Luminescence resonance energy transfer (LRET) in HEK293 cells
Type: binding, rat
Conditions: with gabapentin
[1] = GluN1* + GluN2A + YFP-α2δ-1 mutant
[2] = GluN1 + GluN2A* + YFP-α2δ-1 mutant

NCC1(CC(=O)O)CCCCC1 [gabapentin]
Distance (GluN1* + GluN2A + YFP-α2δ-1): >95 ^# Å
Donor only lifetime (GluN1* + GluN2A + YFP-α2δ-1): 1,779 ± 1 μs
Donor-acceptor lifetime (GluN1* + GluN2A + YFP-α2δ-1): no LRET
Distance [1]: 57.9 ± 0.9 Å
Donor only lifetime [1]: 1,779 ± 1 μs
Donor-acceptor lifetime [1]: 1,344 ± 38 μs
Distance (GluN1 + GluN2A* + YFP-α2δ-1): >95 ^# Å
Donor only lifetime (GluN1 + GluN2A* + YFP-α2δ-1): 1,770 ± 1 μs
Donor-acceptor lifetime (GluN1 + GluN2A* + YFP-α2δ-1): no LRET
Distance [2]: 60.4 ± 0.7 Å
Donor only lifetime [2]: 1,770 ± 1 μs
Donor-acceptor lifetime [2]: 1,409 ± 16 μs

Marks after values point to notes of the source that are not given here.
